Laboratory results from the supplement of paper PMC12595434, “Development of retinoid nuclear receptor pathway antagonists through targeting aldehyde dehydrogenase 1A3” (iScience, 2025).
Some of the results follow. Single values of this set are uncertain.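 Tm was set to 64 °C where no melting was found, and many curves are irregular.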

Protein sequences, listed by entry. Tags and fused reporters are not part of them. Lines headed by an entry give the natural chain unless they say otherwise; changes in a name come on top.
UniProt O43617, whole entry: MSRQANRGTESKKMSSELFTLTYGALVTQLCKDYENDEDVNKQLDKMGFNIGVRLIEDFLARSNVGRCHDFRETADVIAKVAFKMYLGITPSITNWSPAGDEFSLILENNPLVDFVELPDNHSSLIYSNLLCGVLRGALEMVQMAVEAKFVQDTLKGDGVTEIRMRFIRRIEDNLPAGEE
UniProt O75038: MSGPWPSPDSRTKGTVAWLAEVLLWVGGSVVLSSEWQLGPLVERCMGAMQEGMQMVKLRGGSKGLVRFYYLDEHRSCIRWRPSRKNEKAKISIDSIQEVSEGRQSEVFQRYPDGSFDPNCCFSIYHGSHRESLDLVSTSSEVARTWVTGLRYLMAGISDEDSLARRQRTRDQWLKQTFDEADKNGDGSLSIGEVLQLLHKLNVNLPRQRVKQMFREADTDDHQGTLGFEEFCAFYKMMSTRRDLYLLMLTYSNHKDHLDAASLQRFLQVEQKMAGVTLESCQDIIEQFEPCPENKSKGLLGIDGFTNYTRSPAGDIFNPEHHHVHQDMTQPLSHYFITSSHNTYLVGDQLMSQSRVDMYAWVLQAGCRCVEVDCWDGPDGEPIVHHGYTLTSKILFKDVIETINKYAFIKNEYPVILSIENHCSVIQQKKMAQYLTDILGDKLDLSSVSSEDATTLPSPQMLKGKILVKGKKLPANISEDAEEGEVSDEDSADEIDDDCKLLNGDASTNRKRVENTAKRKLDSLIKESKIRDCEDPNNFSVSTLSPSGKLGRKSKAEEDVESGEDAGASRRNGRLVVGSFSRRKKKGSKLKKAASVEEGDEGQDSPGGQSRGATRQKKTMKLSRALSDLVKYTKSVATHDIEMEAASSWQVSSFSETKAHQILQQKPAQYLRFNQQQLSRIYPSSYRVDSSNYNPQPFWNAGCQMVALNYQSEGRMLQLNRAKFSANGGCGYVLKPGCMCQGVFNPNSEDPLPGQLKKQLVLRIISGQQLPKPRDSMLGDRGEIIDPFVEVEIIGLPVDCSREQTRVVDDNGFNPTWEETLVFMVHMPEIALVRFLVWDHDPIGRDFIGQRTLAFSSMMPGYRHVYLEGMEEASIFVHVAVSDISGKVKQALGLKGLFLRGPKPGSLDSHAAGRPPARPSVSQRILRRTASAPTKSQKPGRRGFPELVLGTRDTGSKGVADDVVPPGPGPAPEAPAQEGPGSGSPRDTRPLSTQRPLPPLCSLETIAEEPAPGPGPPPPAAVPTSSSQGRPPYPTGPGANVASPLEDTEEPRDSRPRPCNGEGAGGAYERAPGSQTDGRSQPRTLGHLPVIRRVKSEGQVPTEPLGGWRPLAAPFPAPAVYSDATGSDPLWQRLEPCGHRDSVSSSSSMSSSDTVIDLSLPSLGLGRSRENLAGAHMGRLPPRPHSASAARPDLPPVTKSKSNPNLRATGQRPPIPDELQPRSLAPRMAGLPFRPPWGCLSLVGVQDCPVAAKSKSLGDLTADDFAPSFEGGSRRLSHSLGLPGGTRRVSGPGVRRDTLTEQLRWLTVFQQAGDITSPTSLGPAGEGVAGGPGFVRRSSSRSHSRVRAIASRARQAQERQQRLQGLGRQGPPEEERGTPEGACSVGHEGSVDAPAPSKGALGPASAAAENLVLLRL
UniProt O60825: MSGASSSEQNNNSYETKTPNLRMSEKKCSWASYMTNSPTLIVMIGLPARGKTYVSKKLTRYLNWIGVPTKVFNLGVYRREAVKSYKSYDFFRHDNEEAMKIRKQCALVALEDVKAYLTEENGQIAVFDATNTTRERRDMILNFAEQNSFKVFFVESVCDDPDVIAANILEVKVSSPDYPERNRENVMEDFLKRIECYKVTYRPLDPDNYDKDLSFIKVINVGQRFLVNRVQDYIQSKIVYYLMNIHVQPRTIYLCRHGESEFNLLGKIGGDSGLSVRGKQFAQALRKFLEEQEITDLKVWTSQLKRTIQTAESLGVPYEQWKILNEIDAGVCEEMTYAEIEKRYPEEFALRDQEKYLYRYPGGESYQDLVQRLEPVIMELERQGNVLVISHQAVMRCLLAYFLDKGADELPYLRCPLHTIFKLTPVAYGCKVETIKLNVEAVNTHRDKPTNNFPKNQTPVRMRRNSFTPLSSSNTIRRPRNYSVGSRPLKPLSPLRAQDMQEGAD
UniProt O60858: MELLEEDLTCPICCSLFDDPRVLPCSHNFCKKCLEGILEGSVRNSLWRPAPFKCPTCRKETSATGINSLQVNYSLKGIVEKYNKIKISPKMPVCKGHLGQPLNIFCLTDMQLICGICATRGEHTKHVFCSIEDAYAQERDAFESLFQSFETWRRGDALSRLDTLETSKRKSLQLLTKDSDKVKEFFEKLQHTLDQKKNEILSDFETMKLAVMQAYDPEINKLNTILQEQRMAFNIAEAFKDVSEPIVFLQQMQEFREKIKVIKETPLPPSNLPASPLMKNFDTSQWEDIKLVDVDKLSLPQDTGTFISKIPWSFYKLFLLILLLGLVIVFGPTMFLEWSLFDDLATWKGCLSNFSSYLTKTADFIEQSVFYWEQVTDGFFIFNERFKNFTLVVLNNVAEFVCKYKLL
UniProt O75844: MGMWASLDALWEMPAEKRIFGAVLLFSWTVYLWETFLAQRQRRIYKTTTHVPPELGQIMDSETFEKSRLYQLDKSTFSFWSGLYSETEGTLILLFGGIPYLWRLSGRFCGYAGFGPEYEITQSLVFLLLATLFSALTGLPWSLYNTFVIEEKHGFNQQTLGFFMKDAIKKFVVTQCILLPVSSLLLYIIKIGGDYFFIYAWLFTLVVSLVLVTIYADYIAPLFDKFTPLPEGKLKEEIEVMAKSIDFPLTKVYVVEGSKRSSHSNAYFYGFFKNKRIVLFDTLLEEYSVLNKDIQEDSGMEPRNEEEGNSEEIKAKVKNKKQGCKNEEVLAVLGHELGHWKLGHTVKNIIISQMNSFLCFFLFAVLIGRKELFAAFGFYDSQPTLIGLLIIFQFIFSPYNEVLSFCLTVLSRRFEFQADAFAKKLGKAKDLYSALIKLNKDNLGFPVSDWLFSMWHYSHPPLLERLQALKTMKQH
UniProt O75251, whole entry: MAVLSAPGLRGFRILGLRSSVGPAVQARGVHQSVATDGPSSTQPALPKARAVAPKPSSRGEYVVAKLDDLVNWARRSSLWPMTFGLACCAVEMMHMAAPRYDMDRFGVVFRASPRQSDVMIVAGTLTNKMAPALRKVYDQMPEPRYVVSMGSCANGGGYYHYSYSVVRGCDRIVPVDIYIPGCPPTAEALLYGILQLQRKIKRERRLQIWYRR
UniProt O60907: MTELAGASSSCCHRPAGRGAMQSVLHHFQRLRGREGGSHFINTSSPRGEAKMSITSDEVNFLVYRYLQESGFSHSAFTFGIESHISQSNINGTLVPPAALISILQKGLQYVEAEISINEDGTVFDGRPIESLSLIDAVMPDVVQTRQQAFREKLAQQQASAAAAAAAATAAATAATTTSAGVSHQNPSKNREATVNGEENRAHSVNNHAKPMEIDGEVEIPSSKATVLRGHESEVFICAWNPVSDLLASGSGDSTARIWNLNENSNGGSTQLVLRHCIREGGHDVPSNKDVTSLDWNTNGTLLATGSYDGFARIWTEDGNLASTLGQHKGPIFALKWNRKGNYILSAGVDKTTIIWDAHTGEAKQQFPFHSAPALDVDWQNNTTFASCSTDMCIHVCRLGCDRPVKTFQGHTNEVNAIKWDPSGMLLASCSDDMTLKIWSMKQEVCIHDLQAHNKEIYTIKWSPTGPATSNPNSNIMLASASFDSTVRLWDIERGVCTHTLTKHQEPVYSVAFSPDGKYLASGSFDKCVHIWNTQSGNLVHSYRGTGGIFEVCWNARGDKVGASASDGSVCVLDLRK
UniProt O43670: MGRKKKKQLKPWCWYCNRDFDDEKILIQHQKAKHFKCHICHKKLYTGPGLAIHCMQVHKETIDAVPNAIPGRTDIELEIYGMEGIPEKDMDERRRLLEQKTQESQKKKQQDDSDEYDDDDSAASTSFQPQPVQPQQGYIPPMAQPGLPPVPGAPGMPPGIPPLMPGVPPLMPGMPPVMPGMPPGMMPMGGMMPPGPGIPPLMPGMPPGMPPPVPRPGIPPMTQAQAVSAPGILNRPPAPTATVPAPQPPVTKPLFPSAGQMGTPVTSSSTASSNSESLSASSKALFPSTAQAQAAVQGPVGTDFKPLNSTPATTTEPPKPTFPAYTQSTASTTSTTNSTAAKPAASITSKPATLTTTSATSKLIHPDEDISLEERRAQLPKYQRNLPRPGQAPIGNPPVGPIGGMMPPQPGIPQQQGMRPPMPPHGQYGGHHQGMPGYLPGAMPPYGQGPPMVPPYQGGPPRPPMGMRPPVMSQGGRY
UniProt O75367, whole entry: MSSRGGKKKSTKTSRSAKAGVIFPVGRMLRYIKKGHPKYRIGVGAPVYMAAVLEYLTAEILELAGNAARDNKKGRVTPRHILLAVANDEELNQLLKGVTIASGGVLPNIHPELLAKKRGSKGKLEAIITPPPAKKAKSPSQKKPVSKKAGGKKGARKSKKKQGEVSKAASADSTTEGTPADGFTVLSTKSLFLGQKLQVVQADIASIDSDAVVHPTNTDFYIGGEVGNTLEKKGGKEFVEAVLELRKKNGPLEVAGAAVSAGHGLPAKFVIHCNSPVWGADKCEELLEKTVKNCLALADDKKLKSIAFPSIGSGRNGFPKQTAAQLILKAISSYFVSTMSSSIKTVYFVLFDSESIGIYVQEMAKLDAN
UniProt O75170: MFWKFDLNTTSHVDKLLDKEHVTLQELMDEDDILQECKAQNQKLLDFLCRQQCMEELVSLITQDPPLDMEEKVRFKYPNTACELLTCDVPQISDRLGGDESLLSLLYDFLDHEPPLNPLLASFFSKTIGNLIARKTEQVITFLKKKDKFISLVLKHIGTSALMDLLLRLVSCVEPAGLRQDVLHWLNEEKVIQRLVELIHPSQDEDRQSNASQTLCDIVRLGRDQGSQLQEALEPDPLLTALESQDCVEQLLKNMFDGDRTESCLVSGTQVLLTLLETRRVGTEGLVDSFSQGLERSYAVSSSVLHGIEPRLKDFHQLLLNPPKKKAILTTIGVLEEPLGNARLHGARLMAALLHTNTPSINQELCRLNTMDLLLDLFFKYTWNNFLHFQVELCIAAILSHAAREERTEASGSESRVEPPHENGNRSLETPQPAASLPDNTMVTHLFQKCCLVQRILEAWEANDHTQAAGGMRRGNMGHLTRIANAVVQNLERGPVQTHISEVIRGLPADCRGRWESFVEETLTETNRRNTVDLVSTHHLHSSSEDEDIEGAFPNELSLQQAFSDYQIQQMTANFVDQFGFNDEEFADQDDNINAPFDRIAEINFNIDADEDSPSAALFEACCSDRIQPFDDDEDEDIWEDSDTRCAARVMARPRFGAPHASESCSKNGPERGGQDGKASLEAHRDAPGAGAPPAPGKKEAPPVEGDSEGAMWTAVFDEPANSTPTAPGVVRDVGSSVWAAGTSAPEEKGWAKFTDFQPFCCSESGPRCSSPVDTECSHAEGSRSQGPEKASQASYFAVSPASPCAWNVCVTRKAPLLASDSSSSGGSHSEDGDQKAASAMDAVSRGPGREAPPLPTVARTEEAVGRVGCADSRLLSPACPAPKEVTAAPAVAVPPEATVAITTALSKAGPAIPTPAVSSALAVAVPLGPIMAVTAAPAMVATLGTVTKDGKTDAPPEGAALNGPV
UniProt O75448: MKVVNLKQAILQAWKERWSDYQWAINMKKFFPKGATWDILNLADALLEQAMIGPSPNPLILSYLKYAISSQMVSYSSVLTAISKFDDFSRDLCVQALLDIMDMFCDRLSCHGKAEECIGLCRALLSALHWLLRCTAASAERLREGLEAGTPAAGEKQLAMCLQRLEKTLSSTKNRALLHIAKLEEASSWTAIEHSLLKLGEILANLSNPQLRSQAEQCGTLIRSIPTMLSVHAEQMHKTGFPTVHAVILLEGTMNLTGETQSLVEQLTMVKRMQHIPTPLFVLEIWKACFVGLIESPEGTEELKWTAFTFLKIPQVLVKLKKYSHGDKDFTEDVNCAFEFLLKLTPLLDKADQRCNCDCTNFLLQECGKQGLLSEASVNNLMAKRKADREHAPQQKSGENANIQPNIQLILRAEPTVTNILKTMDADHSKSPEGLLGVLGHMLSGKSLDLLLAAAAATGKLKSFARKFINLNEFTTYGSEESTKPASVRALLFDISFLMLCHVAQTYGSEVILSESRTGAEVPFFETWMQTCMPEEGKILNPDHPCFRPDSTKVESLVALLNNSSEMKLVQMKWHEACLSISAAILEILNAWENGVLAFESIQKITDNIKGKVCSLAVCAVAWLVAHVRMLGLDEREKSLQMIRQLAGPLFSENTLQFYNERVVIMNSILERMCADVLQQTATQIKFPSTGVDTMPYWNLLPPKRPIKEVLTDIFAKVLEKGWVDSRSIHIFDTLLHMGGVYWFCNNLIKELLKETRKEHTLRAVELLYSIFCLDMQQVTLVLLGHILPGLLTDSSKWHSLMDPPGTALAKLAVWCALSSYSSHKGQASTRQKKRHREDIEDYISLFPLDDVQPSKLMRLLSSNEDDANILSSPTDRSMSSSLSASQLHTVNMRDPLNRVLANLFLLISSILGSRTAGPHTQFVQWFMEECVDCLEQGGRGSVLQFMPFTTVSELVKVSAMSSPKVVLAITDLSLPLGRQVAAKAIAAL

Compound: CCc1cnccc1C(=O)Nc1cc2c(cc1F)NC(=O)CC2
Test: melting temperature shift (DMSO Tm minus MBE1-treated Tm) in cellular thermal proteome profiling; higher = less thermal stabilization by MBE1 (negative = stabilized by MBE1)
Conditions: A375

Target	melting temperature shift (MBE1 concentration: 100 nM)	melting temperature shift (MBE1 concentration: 1 uM)
SMARCA5 (UniProt O60264)	-0.128 °C	-0.397 °C
CPNE3 (UniProt O75131)	0.336 °C	0.324 °C
TRAPPC3 (UniProt O43617)	0.0134 °C	-1.17 °C
ROCK2 (UniProt O75116)	0.354 °C	-0.165 °C
BCAR3 (UniProt O75815)	-0.167 °C	-0.416 °C
SNRNP200 (UniProt O75643)	0.855 °C	0.055 °C
CDC40 (UniProt O60508)	-0.127 °C	0.436 °C
TACC1 (UniProt O75410)	-1.59 °C	-0.488 °C
NBN (UniProt O60934)	-0.593 °C	-0.353 °C
UniProt O75038	0 °C	3.27 °C
PIP5K1C (UniProt O60331)	1.65 °C	0.598 °C
PFKFB2 (UniProt O60825)	-0.568 °C	0.0977 °C
NDUFS6 (UniProt O75380)	-11 °C	-5.62 °C
UTP20 (UniProt O75691)	-0.384 °C	-0.282 °C
SLC25A17 (UniProt O43808)	-0.853 °C	-1.24 °C
UniProt O60858	-0.835 °C	-1.07 °C
UniProt O75509	-1.13 °C	2.42 °C
AQR (UniProt O60306)	0.357 °C	1.27 °C
ACTN4 (UniProt O43707)	-1.77 °C	-1.47 °C
EIF3J (UniProt O75822)	-1.16 °C	0.376 °C

Target	melting temperature shift (MBE1 concentration: 100 nM)	melting temperature shift (MBE1 concentration: 1 uM)
UniProt O60237	-1.22 °C	-1.72 °C
NDUFS2 (UniProt O75306)	-0.44 °C	0.189 °C
ZMPSTE24 (UniProt O75844)	-1.47 °C	-3.02 °C
GGCT (UniProt O75223)	-0.696 °C	-0.183 °C
UniProt O43542	3 °C	0.653 °C
TRIM3 (UniProt O75382)	-1.21 °C	-0.795 °C
UniProt O60583	-2.54 °C	-0.978 °C
VPS4B (UniProt O75351)	0.537 °C	-0.366 °C
SF3B1 (UniProt O75533)	0.794 °C	0.733 °C
UniProt O60292	-0.96 °C	-0.235 °C
NDUFS7 (UniProt O75251)	-0.577 °C	0.324 °C
UniProt O60507	0.778 °C	0.177 °C
TBL1X (UniProt O60907)	1.65 °C	-2.23 °C
MGEA5 (UniProt O60502)	-0.49 °C	-0.153 °C
ZNF207 (UniProt O43670)	-2.05 °C	-3.66 °C
KATNA1 (UniProt O75449)	1.29 °C	-0.0305 °C
H2AFY (UniProt O75367)	-1.47 °C	3.55 °C
KIN (UniProt O60870)	-0.0705 °C	0.0641 °C
PPP6R2 (UniProt O75170)	0.221 °C	2.54 °C
PHLPP1 (UniProt O60346)	0.114 °C	1.15 °C

Record cards, from the list above. Order of values: melting temperature shift (MBE1 concentration: 100 nM) | melting temperature shift (MBE1 concentration: 1 uM)
UTP20 (UniProt O75691) is listed with -0.384 °C | -0.282 °C
UniProt O60583 is listed with -2.54 °C | -0.978 °C

(continued)

Target	melting temperature shift (MBE1 concentration: 100 nM)	melting temperature shift (MBE1 concentration: 1 uM)
MED24 (UniProt O75448)	-0.471 °C	0.501 °C
TSC22D2 (UniProt O75157)	-1.04 °C	0.81 °C
TOM1 (UniProt O60784)	0.446 °C	0.14 °C
UniProt O60336	-0.964 °C	-0.546 °C
OFD1 (UniProt O75665)	-1.78 °C	2.8 °C
PFDN1 (UniProt O60925)	-0.378 °C	-4.03 °C
FLNB (UniProt O75369)	0.177 °C	0.488 °C
UniProt O60725	-0.348 °C	0.672 °C
NRDC (UniProt O43847)	1.15 °C	0.421 °C
DIAPH1 (UniProt O60610)	-0.386 °C	-0.263 °C
ATG13 (UniProt O75143)	0.727 °C	0.183 °C
LYPLA1 (UniProt O75608)	-0.629 °C	0.501 °C
UniProt O60315	-0.621 °C	0.179 °C
ERI3 (UniProt O43414)	-0.985 °C	0.0244 °C
SSNA1 (UniProt O43805)	-1.66 °C	1.36 °C
MGRN1 (UniProt O60291)	-2.37 °C	1.01 °C
EFCAB14 (UniProt O75071)	-3.61 °C	0.892 °C
BRD4 (UniProt O60885)	-0.487 °C	-0.32 °C
